Experimental data as given in PubChem BioAssay AID288 (DTP/NCI, 2004).
The list is a part of this screen's results and no random one: it gathers tests that were run many times, whatever their T/C, doses with no T/C, and many T/C values between a quarter and a half above the control. Other doses and runs of a compound stand elsewhere. T/C gives the treated animals as a percentage of the vehicle group. Schedule codes are those of the source, taken here to give the interval after Q, in days (D) or hours (H), and the number of doses after X. Some doses have a count of surviving animals in place of a T/C: the source holds a T/C of zero for them, seemingly a mark for toxic or unscored doses. Some survivor counts are full or nearly so, which does not show that the dose was tolerated: survival well below the control is almost never listed, so the zero probably covers shortened survival too. Survivors were counted at the toxicity check, usually on the fifth day, unless a day is given; later deaths do not show. Some doses were run more than once; their values stand side by side, smallest first. For survival time, this PubChem deposit counts one and a half times the control or more as active, and values a quarter to a half above the control carry no call in these data; other NCI protocols may use other cut-offs. Additions like (4×) count equal records among those shown. Some T/C values carry the count of animals alive at the toxicity check (mostly the fifth day); where none is given, no animal had died by that day.

System: BDF1 mice, M5076 sarcoma s.c., survival/tumor T/C
Assay: NCI In Vivo Anticancer Drug Screen. Data for tumor model Sarcoma M5076 (subcutaneous) in B6D2F1 (BDF1) mice
Method: The antitumor activity of compounds was measured in mice bearing transplantable tumors. Survival or tumor size were measured and the results are expressed as the measurement made in the treated group (T) divided by the measurement made in the vehicle treated control group (C). The tumor model used in this assay is Sarcoma M5076 (subcutaneous) in B6D2F1 (BDF1) mice

[1] = T/C endpoint: median survival time, dose: 50.0 mg/kg/injection, schedule: Q01DX009 (ip), vehicle: saline with Tween-80, higher T/C = longer survival
[2] = T/C endpoint: median tumor weight (est.), dose: 50.0 mg/kg/injection, schedule: Q01DX009 (ip), vehicle: saline with Tween-80, higher T/C = larger tumour
[3] = T/C endpoint: median survival time, dose: 32.0 mg/kg/injection, schedule: Q01DX009 (ip), vehicle: saline with Tween-80, higher T/C = longer survival
[4] = T/C endpoint: median survival time, dose: 64.0 mg/kg/injection, schedule: Q01DX009 (ip), vehicle: saline with Tween-80, higher T/C = longer survival

C1CCC2OCCOCCOCCOCCOC2C1 (stereo unspecified)
survivor count (T/C endpoint: median survival time, dose: 200.0 mg/kg/injection, schedule: Q01DX009 (ip), vehicle: saline, higher T/C = longer survival): 0 of 10
survivor count (T/C endpoint: median tumor weight (est.), dose: 200.0 mg/kg/injection, schedule: Q01DX009 (ip), vehicle: saline, higher T/C = larger tumour): 0 of 10 on day 20

O=C(N/N=C\c1cc(Br)cc(Br)c1O)N/N=C/c1cc(Br)cc(Br)c1O
survivor count (T/C endpoint: median survival time, dose: 1600.0 mg/kg/injection, schedule: Q04DX003 (ip), vehicle: saline with Tween-80, higher T/C = longer survival): 5 of 8

[N-]=[N+]=CC(=O)CCC(N)C(=O)O (stereo unspecified)
survivor count (T/C endpoint: median survival time, dose: 6.48 mg/kg/injection, schedule: Q04DX004 (ip), vehicle: saline, higher T/C = longer survival): 10 of 10
survivor count (T/C endpoint: median survival time, dose: 10.8 mg/kg/injection, schedule: Q04DX004 (ip), vehicle: saline, higher T/C = longer survival): 6 of 8
survivor count (T/C endpoint: median survival time, dose: 16.0 mg/kg/injection, schedule: Q04DX005 (ip), vehicle: saline, higher T/C = longer survival): 0 of 10 on day 55

CC1(C)OCC(CO)(Nc2nc(N3CC3)nc(N3CC3)n2)CO1
survivor count (T/C endpoint: median survival time, dose: 6.25 mg/kg/injection, schedule: Q02DX011 (ip), vehicle: saline, higher T/C = longer survival): 0 of 10 on day 16
survivor count (T/C endpoint: median survival time, dose: 12.5 mg/kg/injection, schedule: Q02DX011 (ip), vehicle: saline, higher T/C = longer survival): 0 of 10 on day 16
survivor count (T/C endpoint: median survival time, dose: 25.0 mg/kg/injection, schedule: Q02DX011 (ip), vehicle: saline, higher T/C = longer survival): 0 of 10 on day 16

Nc1nc(N)c2c(ccc3nccc32)[nH]1
survivor count [1]: 0 of 10 on day 9
survivor count [2]: 0 of 10 on day 20

CCCCCCC(=O)O[C@H]1CC[C@H]2[C@@H]3CCC4=CC(=O)CC[C@]4(C)[C@H]3CC[C@]12C
T/C (T/C endpoint: mean tumor weight, dose: 7.5 mg/kg/injection, schedule: Q02DX011 (ip), vehicle: Klucel (hydroxypropylcellulose) (HPC), evaluated on day 22, higher T/C = larger tumour): 136 % of control

COc1cccc2c1C(=O)c1c(O)c3c(c(O)c1C2=O)C[C@@](O)(C(C)=O)C[C@@H]3OC1CC(N)C(O)C(C)O1 (stereo partly specified)
survivor count (T/C endpoint: median survival time, dose: 0.8 mg/kg/injection, schedule: Q04DX006 (ip), vehicle: saline, higher T/C = longer survival): 10 of 10 on day 16
survivor count (T/C endpoint: median survival time, dose: 1.6 mg/kg/injection, schedule: Q04DX006 (ip), vehicle: saline, higher T/C = longer survival): 10 of 10 on day 16
survivor count (T/C endpoint: median survival time, dose: 3.2 mg/kg/injection, schedule: Q02DX030 (ip), vehicle: saline, higher T/C = longer survival): 10 of 10 on day 16
survivor count (T/C endpoint: median survival time, dose: 3.2 mg/kg/injection, schedule: Q04DX006 (ip), vehicle: saline, higher T/C = longer survival): 9 of 9 on day 16

COCC(O)Cn1ccnc1[N+](=O)[O-] (stereo unspecified)
T/C (T/C endpoint: median survival time, dose: 446.2 mg/kg/injection, schedule: Q07DX002 (ip), vehicle: saline, higher T/C = longer survival): 129 % of control [8 of 9 alive]
T/C (T/C endpoint: median survival time, dose: 600.0 mg/kg/injection, schedule: Q01DX001 (ip), vehicle: saline, evaluated on day 17, higher T/C = longer survival): 95 % of control
T/C (T/C endpoint: median survival time, dose: 600.0 mg/kg/injection, schedule: Q01DX001 (ip), vehicle: saline, evaluated on day 48, higher T/C = longer survival): 93 % of control
T/C (T/C endpoint: median survival time, dose: 600.0 mg/kg/injection, schedule: Q01DX001 (ip), vehicle: saline, evaluated on day 61, higher T/C = longer survival): 95 % of control [9 of 10 alive on day 61]
T/C (T/C endpoint: median survival time, dose: 1000.0 mg/kg/injection, schedule: Q01DX001 (ip), vehicle: saline, evaluated on day 17, higher T/C = longer survival): 97 % of control
T/C (T/C endpoint: median survival time, dose: 1000.0 mg/kg/injection, schedule: Q01DX001 (ip), vehicle: saline, evaluated on day 38, higher T/C = longer survival): 101 % of control [2 of 5 alive]
T/C (T/C endpoint: median survival time, dose: 1000.0 mg/kg/injection, schedule: Q01DX001 (ip), vehicle: saline, evaluated on day 48, higher T/C = longer survival): 98 % of control
T/C (T/C endpoint: median survival time, dose: 1000.0 mg/kg/injection, schedule: Q01DX001 (ip), vehicle: saline, evaluated on day 61, higher T/C = longer survival): 96 % of control

O=[N+]([O-])c1ccc(CSc2ncnc3c2ncn3C2OC(COP(=O)(O)O)C(O)C2O)cc1 (stereo unspecified)
T/C (T/C endpoint: median survival time, dose: 108.0 mg/kg/injection, schedule: Q01DX005 (ip), vehicle: saline, evaluated on day 16, higher T/C = longer survival): 139 % of control
T/C (T/C endpoint: median survival time, dose: 108.0 mg/kg/injection, schedule: Q01DX005 (ip), vehicle: saline, evaluated on day 17, higher T/C = longer survival): 126 % of control
T/C (T/C endpoint: median survival time, dose: 108.0 mg/kg/injection, schedule: Q01DX005 (ip), vehicle: saline, evaluated on day 47, higher T/C = longer survival): 132 % of control
T/C (T/C endpoint: median survival time, dose: 108.0 mg/kg/injection, schedule: Q01DX005 (ip), vehicle: saline, evaluated on day 49, higher T/C = longer survival): 119 % of control
T/C (T/C endpoint: median survival time, dose: 180.0 mg/kg/injection, schedule: Q01DX005 (ip), vehicle: saline, evaluated on day 16, higher T/C = longer survival): 123 % of control
T/C (T/C endpoint: median survival time, dose: 180.0 mg/kg/injection, schedule: Q01DX005 (ip), vehicle: saline, evaluated on day 17, higher T/C = longer survival): 149 % of control
T/C (T/C endpoint: median survival time, dose: 180.0 mg/kg/injection, schedule: Q01DX005 (ip), vehicle: saline, evaluated on day 47, higher T/C = longer survival): 123 % of control [7 of 8 alive on day 47]
T/C (T/C endpoint: median survival time, dose: 180.0 mg/kg/injection, schedule: Q01DX005 (ip), vehicle: saline, evaluated on day 49, higher T/C = longer survival): 146 % of control
T/C (T/C endpoint: median survival time, dose: 300.0 mg/kg/injection, schedule: Q01DX005 (ip), vehicle: saline, evaluated on day 16, higher T/C = longer survival): 152 % of control [6 of 7 alive]
T/C (T/C endpoint: median survival time, dose: 300.0 mg/kg/injection, schedule: Q01DX005 (ip), vehicle: saline, evaluated on day 17, higher T/C = longer survival): 164 % of control
T/C (T/C endpoint: median survival time, dose: 300.0 mg/kg/injection, schedule: Q01DX005 (ip), vehicle: saline, evaluated on day 49, higher T/C = longer survival): 162 % of control
survivor count (T/C endpoint: median survival time, dose: 300.0 mg/kg/injection, schedule: Q01DX005 (ip), vehicle: saline, higher T/C = longer survival): 4 of 8 on day 47
survivor count (T/C endpoint: median survival time, dose: 500.0 mg/kg/injection, schedule: Q01DX005 (ip), vehicle: saline, higher T/C = longer survival): 0 of 8 on day 47 and 1 of 8 on day 49

CCOC(=O)C(CC(C)C)NC(=O)C(Cc1ccc(N(CCCl)CCCl)cc1)NC(C)=O (stereo unspecified)
T/C [3]: 129 and 133 % of control
survivor count [4]: 8 of 10 on day 9
survivor count (T/C endpoint: median survival time, dose: 128.0 mg/kg/injection, schedule: Q01DX009 (ip), vehicle: saline with Tween-80, higher T/C = longer survival): 0 of 10 on day 9

Cc1ccc(C(=O)N=Nc2c(Cl)c(O)c3ccccc3c2O)cc1
survivor count [1]: 7 of 10 on day 9
survivor count (T/C endpoint: median survival time, dose: 100.0 mg/kg/injection, schedule: Q01DX009 (ip), vehicle: saline with Tween-80, higher T/C = longer survival): 9 of 10 on day 9
survivor count (T/C endpoint: median survival time, dose: 200.0 mg/kg/injection, schedule: Q01DX009 (ip), vehicle: saline with Tween-80, higher T/C = longer survival): 1 of 10 on day 9
survivor count [2]: 6 of 10 on day 20
survivor count (T/C endpoint: median tumor weight (est.), dose: 200.0 mg/kg/injection, schedule: Q01DX009 (ip), vehicle: saline with Tween-80, higher T/C = larger tumour): 1 of 10 on day 20

Cc1cc(C)nc(NS(=O)(=O)c2ccc(NC(=O)C(Cl)(Cl)Cl)cc2)n1
T/C (T/C endpoint: median tumor weight (est.), dose: 50.0 mg/kg/injection, schedule: Q01DX009 (ip), vehicle: saline with Tween-80, evaluated on day 20, higher T/C = larger tumour): 135 % of control

Cc1[nH]c(=O)[nH]c(=O)c1N(CCF)CCCl
T/C (T/C endpoint: median survival time, dose: 8.0 mg/kg/injection, schedule: Q01DX009 (ip), vehicle: saline with Tween-80, higher T/C = longer survival): 128 % of control
T/C (T/C endpoint: median survival time, dose: 16.0 mg/kg/injection, schedule: Q01DX009 (ip), vehicle: saline with Tween-80, higher T/C = longer survival): 134 % of control (2×)
survivor count [3]: 8 of 10 on day 9 and 10 of 10 on day 9
survivor count [4]: 0 of 10 on day 9
survivor count (T/C endpoint: median tumor weight (est.), dose: 32.0 mg/kg/injection, schedule: Q01DX009 (ip), vehicle: saline with Tween-80, higher T/C = larger tumour): 0 of 10 on day 20
survivor count (T/C endpoint: median tumor weight (est.), dose: 64.0 mg/kg/injection, schedule: Q01DX009 (ip), vehicle: saline with Tween-80, higher T/C = larger tumour): 0 of 10 on day 20

O=C1N=C(Oc2ccccc2)SC1=O
survivor count (T/C endpoint: median survival time, dose: 100.0 mg/kg/injection, schedule: Q04DX003 (ip), vehicle: saline with Tween-80, higher T/C = longer survival): 5 of 10 on day 57
survivor count (T/C endpoint: median survival time, dose: 200.0 mg/kg/injection, schedule: Q04DX003 (ip), vehicle: saline with Tween-80, higher T/C = longer survival): 2 of 10 on day 57
survivor count (T/C endpoint: median survival time, dose: 400.0 mg/kg/injection, schedule: Q04DX003 (ip), vehicle: saline with Tween-80, higher T/C = longer survival): 0 of 10 on day 57

COC(=N)CCCCC(=N)OC
T/C (T/C endpoint: median tumor weight (est.), dose: 200.0 mg/kg/injection, schedule: Q01DX009 (ip), vehicle: saline, evaluated on day 20, higher T/C = larger tumour): 127 % of control
